Results are given in words; binding and its absence hold for the method and conditions named.
Target: Grb2 C-terminal SH3 domain (SH3C), residues 155-217 (mouse) (UniProt Q60631)
Assay: cross-linking + SEC; glutaraldehyde crosslinking and size exclusion chromatography of the purified domains; both purified

Protein sequences, listed by entry. Tags and fused reporters are not part of them. Residues count along the entry.
UniProt Q60631, residues 155-217: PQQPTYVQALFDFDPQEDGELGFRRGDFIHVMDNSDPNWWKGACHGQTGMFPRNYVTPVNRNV

Grb2 C-terminal SH3 domain (SH3C), residues 155-217 (from UniProt Q60631 155-217) (domain or fragment)
binding: no binding
